Plain letter strings leave the end groups untold.
Test: peptide made by a vendor (Fmoc solid-phase peptide synthesis)
Details: whole synthesis, HPLC and area integration

LLGDFFRKSKEKIGKEFKRIVQRIKDFLRNLVPRTES
final HPLC purity (TFA salt, run 1): 99%
final HPLC purity (TFA salt, run 2): 98%
final HPLC purity (acetate salt): 99%
